# Measurements taken from PubChem BioAssay AID2685 (National Center for Advancing Translational Sciences (NCATS), 2010).
# Some of the results follow. Shown are side measurements of this screen, not its main read-out; they come without a call. The list favours compounds with an active or inconclusive main result. The note in brackets gives the kind of curve behind each potency; many fits are weak.
# Experiment: qHTS Assay for Lipid Storage Modulators in Drosophila S3 Cells;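 on cell number change: cells counted by Cell Tracker Red CMTPX staining in the red channel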
# Details: BODIPY lipid droplet fluorescence, 18-24 h; for cell number change: measured here: cell count max response, cells fed with added oleic acid
# In short: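 Laser-scanning cytometry quantifies lipid droplet accumulation (500–530 nm total intensity; droplet/cell object ratio) in oleic acid-fed (400 uM added) Drosophila S3 cells treated with a concentration series. 20 uM Triacsin C defined 100% inhibition.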
# [1] = measured here: lipid fluorescence (Fed channel) AC50, cells fed with added oleic acid
# [2] = measured here: cell number channel AC50, cells fed with added oleic acid
Compound,cell number change [%],AC50 [1],AC50 [2]
CCCn1c(N)c(N2CCCCC2)c(=O)n(CC(=O)Nc2ccccc2)c1=O,13.8,"6.51 µM [rising, single point]",–
O=C(NC1CCC(O)CC1)c1cccc2cccnc12 (centres undefined),1.39,"16.4 µM [rising, partial curve]",–
O=C(NC1CCCCC1)N(Cc1nc2ccccc2c(=O)[nH]1)C1CCCCC1,-0.999,–,–
Cc1ccccc1NC(=O)c1ccc(C)c(S(=O)(=O)Nc2ccccn2)c1,–,"0.146 µM [rising, full curve, poor fit]",–
CC(/C=C1\SC(=S)N(c2ccc(C(=O)O)cc2)C1=O)=C\c1ccccc1,10.5,–,–
O=C(CN1C(=O)c2cccc3cccc1c23)N1CCN(c2ccc(F)cc2)CC1,19.7,"0.461 µM [rising, full curve, poor fit]",–
CCOC(=O)C1=C(N)Oc2cc(O)ccc2C1c1ccccc1 (centres undefined),-25.9,"20.6 µM [falling, single point]",–
Cc1ccc(C)c(N=Nc2nc3ccccc3n2C)c1,-63.1,"16.4 µM [falling, single point]","13 µM [falling, partial curve]"
CCOc1ccc(N(CC(=O)NCCc2ccc(F)cc2)S(=O)(=O)c2ccccc2)cc1,43.3,–,"4.61 µM [rising, full curve, poor fit]"
CN(C)S(=O)(=O)c1ccc(N2CCCC2)c(C(=O)N2CCN(c3ccc([N+](=O)[O-])cc3)CC2)c1,30.7,–,–
COc1ccc(/C=N/N2C(=O)CSC2=S)cc1,158,–,"29.1 µM [rising, single point]"
Cn1c(SCC(=O)Nc2ccccc2)nc2ccccc2c1=O,-24.6,"18.4 µM [rising, single point]",–
Cc1noc(C)c1CC(=O)N1CCCC(C(=O)c2ccc(C(C)(C)C)cc2)C1 (centres undefined),-47.5,"32.6 µM [falling, single point]","14.6 µM [falling, partial curve]"
COc1cc(C)nc(Oc2ccc(OCCOc3ccc(C)cc3)nn2)n1,-26.7,"10.3 µM [falling, partial curve, poor fit]",–
COc1ccc(NC(=O)C2CC(=O)OC2c2ccccc2)cc1 (centres undefined),-37.7,"0.13 µM [falling, full curve]","0.517 µM [falling, full curve]"
O=C(OCC(=O)C12CC3CC(CC(C3)C1)C2)c1ccc(CO)cc1,-3.7,"6.51 µM [falling, single point]","6.51 µM [falling, single point]"
O=C(Nc1cccnc1)c1cc(-c2ccc(Br)cc2)nc2ccccc12,24.6,"0.82 µM [falling, partial curve]",–
NC(=S)N/N=C1\CCSc2ccc(Cl)cc21,6.46,"0.461 µM [rising, full curve]",–
O=C(Nc1ccc(C(=O)NCC2CCN(Cc3ccccc3F)CC2)cc1)C1=CSCCO1,5.89,"14.6 µM [rising, partial curve]",–
O=C(Nc1cccc(F)c1)C1CCN(C(=O)c2ccccc2Cl)CC1,41.6,"18.4 µM [rising, partial curve]","9.2 µM [rising, partial curve]"
O=S(=O)(c1ccccc1Cl)N1CCC(Cc2ccccc2)CC1,-9.01,"29.1 µM [falling, single point]","0.731 µM [falling, single point]"

# 5 entries from above, tab-delimited:
Compound	cell number change [%]	AC50 [1]	AC50 [2]
Cc1ccccc1NC(=O)c1ccc(C)c(S(=O)(=O)Nc2ccccn2)c1	–	0.146 µM [rising, full curve, poor fit]	–
CC(/C=C1\SC(=S)N(c2ccc(C(=O)O)cc2)C1=O)=C\c1ccccc1	10.5	–	–
O=C(CN1C(=O)c2cccc3cccc1c23)N1CCN(c2ccc(F)cc2)CC1	19.7	0.461 µM [rising, full curve, poor fit]	–
CCOC(=O)C1=C(N)Oc2cc(O)ccc2C1c1ccccc1 (centres undefined)	-25.9	20.6 µM [falling, single point]	–
Cc1ccc(C)c(N=Nc2nc3ccccc3n2C)c1	-63.1	16.4 µM [falling, single point]	13 µM [falling, partial curve]

# Remaining list, next part:

Compound,cell number change [%],AC50 [1],AC50 [2]
COc1ccc(-c2nc(CSCC(=O)NCCCN3CCCC3=O)c(C)o2)cc1,–,"3.26 µM [rising, single point]",–
c1ccc(COc2ccc(CN3CCN(c4ccccn4)CC3)cc2)cc1,6.97,–,–
S=c1[nH]ccn1-c1ccc(Cl)cc1,33.6,"18.4 µM [rising, single point]",–
COc1cc(S(=O)(=O)NCc2cccnc2)ccc1F,41.7,–,"20.6 µM [rising, single point]"
O=C(N=C1SC2CS(=O)(=O)CC2N1c1ccc(F)cc1)C1CC1 (centres undefined),20.2,"13 µM [rising, partial curve]",–
COc1ccc(OCc2nnc(SCC(=O)Nc3ccccc3F)o2)cc1,25,"35.5 µM [falling, single point]",–
O=C1Nc2ccccc2/C1=N\N1CCOCC1,-1.29,–,–
Cc1cc([N+](=O)[O-])nn1Cc1ccc(C(=O)N/N=C/c2ccc(F)cc2)cc1,15.3,–,"2.06 µM [rising, partial curve]"
CCN(CC(=O)Nc1ccc(NC(C)=O)cc1)C(=O)Cc1cccc2ccccc12,-6.71,–,–
COc1ccc(C(CC(=O)NCCCN2CCOCC2)NS(=O)(=O)c2ccc(C)cc2)cc1 (centres undefined),-26.7,"16.4 µM [falling, single point]",–
O=C(CC(SCCO)c1ccc2c(c1)OCO2)c1cccs1 (centres undefined),56.3,"0.517 µM [rising, full curve]","2.59 µM [rising, full curve, poor fit]"
Oc1ccccc1N1CCN(C(=S)Nc2ccc(SC(F)F)cc2)CC1,4.88,"0.13 µM [falling, full curve, poor fit]","0.461 µM [falling, single point]"
Cc1cc(C)n2c(SCC(=O)Nc3ccccc3C#N)nnc2n1,13.2,"0.82 µM [rising, full curve, poor fit]",–
Cc1cccc(OCCN2C(=O)C(=O)c3cccc(C)c32)c1,2.86,–,"3.66 µM [rising, single point]"
O=C(c1cccc(S(=O)(=O)N2CCOCC2)c1)N1CCCC1,1.64,"5.17 µM [falling, single point]",–
COc1ccc(CC(=O)Nc2nnc(SCc3ccccc3)s2)cc1S(=O)(=O)N1CCOCC1,-6.43,–,–
CC1(C)CC(=O)C=C(NCCc2ccc(S(N)(=O)=O)cc2)C1,–,"29.1 µM [falling, single point]",–
COc1ccc(C2NC(c3ccc(OC)cc3)C(C)C(=O)C2C)cc1 (centres undefined),22.8,"0.651 µM [rising, full curve]",–
O=C1OCCC1Sc1nc2ccccc2c(=O)n1-c1ccc(F)cc1 (centres undefined),54.2,–,"0.326 µM [rising, full curve, poor fit]"
O=C(CSc1nc2sccc2c(=O)[nH]1)N1CCN(c2ccccc2)CC1,26.3,"0.411 µM [rising, full curve, poor fit]","0.0731 µM [rising, full curve, poor fit]"
CC(C)Cc1ccccc1O,-1.94,"29.1 µM [rising, single point]",–

Compound,cell number change [%],AC50 [1],AC50 [2]
COC1(OC)N=C(N)C2(C#N)C(c3ccc(F)cc3)C12C#N (centres undefined),-32.7,"5.17 µM [falling, full curve]","3.66 µM [falling, full curve]"
CCOC(=O)C1CCN(C(=O)c2cc3cc4cc(OC)ccc4nc3o2)CC1,–,–,"3.66 µM [rising, single point]"
CCOc1ccc(NC(=O)CN(C)C(=O)c2cc(C)oc2C)cc1OCC,-7.15,"6.51 µM [rising, single point]",–
CCCCN(C)CCNC(=O)C(=O)c1c(C)[nH]c2ccccc12,4.67,–,–
N#CC(c1ccccc1)c1cnccn1 (centres undefined),-45.8,"18.4 µM [falling, partial curve]","0.461 µM [falling, full curve, poor fit]"
COC(=O)c1c(NC(=O)COC(=O)C2CCC2)sc(C)c1C,71.5,–,"5.17 µM [rising, partial curve]"
CCc1cc(=O)oc2cc(OCC(=O)NCc3ccccn3)ccc12,–,"2.31 µM [falling, single point]",–
COc1ccc(N2CCOCC2)c(NC(=O)c2cc3ccccc3o2)c1,-18.4,"6.31 µM [rising, single point]",–
C/C(=C\c1ccc(F)cc1)C(=O)c1c(C)cc(C)[nH]c1=O,-12.5,–,–
COc1ccc(S(=O)(=O)NC(CC(=O)NCCc2ccccc2)c2ccco2)cc1 (centres undefined),59.5,–,"8.2 µM [rising, partial curve]"
CCC(=O)N(Cc1c(C)nn(-c2ccccc2)c1Cl)c1ccc(Cl)cc1,39.8,"29.1 µM [rising, single point]","20.6 µM [rising, single point]"
CC(Oc1ccccc1)C(=O)N=C1SC2CS(=O)(=O)CC2N1c1ccccc1 (centres undefined),-23.4,"0.651 µM [falling, single point]",–
CNc1ccc(/C=C(\CCC(=O)O)c2nc3ccccc3s2)cc1[N+](=O)[O-],-1.58,"7.31 µM [rising, partial curve]",–
CCCC(O)(CCC)C(=O)NNc1ccccc1,75.6,–,–
Nc1nonc1-c1nc2ccccc2n1CC(=O)N/N=C/c1ccc(-c2ccccc2C(=O)O)o1,–,"20.6 µM [rising, single point]",–
COCCn1c(-c2ccc(Cl)cc2)cnc1SCC(=O)NCCc1ccc(OC)c(OC)c1,-13.7,–,–
O=C(CSc1ncccn1)N1CCC(Cc2ccccc2)CC1,88,–,–
CC(=O)Nc1c(C(=O)C2CC2)oc2ccccc12,24.2,"18.4 µM [rising, partial curve]",–
CC1CCN(S(=O)(=O)c2ccc(C(=O)NC3CCS(=O)(=O)C3)cc2)CC1 (centres undefined),21.8,"29.1 µM [rising, single point]",–
COC(=O)C1CCN(C(=O)CSc2ccccc2)CC1,-51.4,"2.91 µM [falling, full curve, poor fit]","6.51 µM [falling, full curve]"
